Binding signal data for 54 sequences are collected here from article PMC7819943, “Rice protein-binding microarrays: a tool to detect cis-acting elements near promoter regions in rice”.

Amino acid sequences for entries named in this document (tags omitted).
UniProt Q0JBA9, entry or part of it: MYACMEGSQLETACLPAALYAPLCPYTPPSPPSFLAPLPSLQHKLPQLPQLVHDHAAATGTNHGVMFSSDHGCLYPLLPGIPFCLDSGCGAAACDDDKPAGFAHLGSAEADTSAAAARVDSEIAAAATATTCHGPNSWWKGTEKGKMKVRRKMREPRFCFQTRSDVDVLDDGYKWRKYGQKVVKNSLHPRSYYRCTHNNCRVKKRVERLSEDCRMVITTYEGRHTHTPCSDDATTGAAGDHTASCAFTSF

The list shows a part of the results.

The assay deals with OsWRKY34 (Oryza sativa, UniProt Q0JBA9 1-250). Put plainly: protein-binding microarray (RPBM); PBS, 2% BSA, 51.3 ng/ul salmon testes DNA, 50 uM zinc acetate, 200 nM TF, 25 C, 1 h; high values mean tight binding. Conditions: protein: recombinant; tags: N-terminal polyhistidine and DsRed monomer fusion (pET32a); label: CyDye5-dUTP incorporated in the synthesized complementary strand; 3' TTTTT single-stranded linker to array surface; dsDNA, one strand shown. In a few lines:
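In PBS with 2% BSA, salmon testes DNA and 50 µM zinc acetate, 200 nM protein was incubated on a custom Agilent array at 25 °C for 1 h and then washed off. The array had been made double-stranded by primer extension with Cy5-dUTP and blocked with 2% BSA. The proteins were transcription factors fused N-terminally to polyhistidine and DsRed, expressed in E. coli BL21-CodonPlus and purified on Ni–NTA. The binding signal is per-feature fluorescence intensity (arbitrary units) from an Axon 4000B scanner.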
Regarding “TCACTGCATAAACTACACCATCCGTCTCCAATGACTCCCGCGGAGTCACCTAGTGCAG”, the binding signal is 9510 fluorescence intensity (a.u.).

As to “CAACACACAACCCAACTCTCATCTCATCACAACCGCGCGACGGAGTCACCTAGTGCAG”, the binding signal was 10300 fluorescence intensity (a.u.).

As for “TCCGCTGTTCTTGGTCAATCTTCTGTCAAAGTGCACAATACGGAGTCACCTAGTGCAG”, the binding signal is 8240 fluorescence intensity (a.u.).

With “TCTCTCTGAGAACCTATAGAATATTTGCAATTTTTTTTCTCGGAGTCACCTAGTGCAG”, the binding signal is 8370 fluorescence intensity (a.u.).

As to “CTCTCGTCTCGGAGAAGGCAACGTCGCCCTCGCCGCCGCGCGGAGTCACCTAGTGCAG”, the binding signal was 8880 fluorescence intensity (a.u.).

In the case of “TTTCTTTTCCTAAACATGATACCTCGGAATCCATACTGTCCGGAGTCACCTAGTGCAG”, the binding signal was 8260 fluorescence intensity (a.u.).

In the case of “ATCTTCCCCACTTCTCCATCCTGACATGGTATACTTCTTGCGGAGTCACCTAGTGCAG”, the binding signal is 8310 fluorescence intensity (a.u.).

With “ACACATCCATGAAGATCCTCTTGTCACTTAGCCAACCTAACGGAGTCACCTAGTGCAG”, the binding signal was 9040 fluorescence intensity (a.u.).

Turning to “CTTTGTATTTCTGGATGGAGATGTGCCGATGTATTTGACTCGGAGTCACCTAGTGCAG”, the binding signal was 9600 fluorescence intensity (a.u.).

In the case of “CCATCTCTGCCAGTTAGTTTCTTAATGATTTGGATTTTTGCGGAGTCACCTAGTGCAG”, the binding signal is 8590 fluorescence intensity (a.u.).

Turning to “ACGGATATAGTGGTGGTGGTGGAGGAATGATGGTGAGCGGCGGAGTCACCTAGTGCAG”, the binding signal was 9370 fluorescence intensity (a.u.).

In the case of “TGTGACACGCCAAAACTTTACACCCCTGGATCTAAACACACGGAGTCACCTAGTGCAG”, the binding signal is 8780 fluorescence intensity (a.u.).

For “TCCATTACTACTCTCCAGTGTTCTTTTTTCCGTACCCATGCGGAGTCACCTAGTGCAG”, the binding signal was 9250 fluorescence intensity (a.u.).

Regarding “GCTGTTTTTGTTCCTTTTTTTTTAACACGGGTTCATCAAGCGGAGTCACCTAGTGCAG”, the binding signal was 8650 fluorescence intensity (a.u.).

On to “GACATACACCATCTCACAGTTGATGAAGCTCACTTCCATCCGGAGTCACCTAGTGCAG”, for which the binding signal is 10100 fluorescence intensity (a.u.).

For the sequence “GTTTGTCAAAAAGTCAACGGCGTCATATATTATACGGAGGCGGAGTCACCTAGTGCAG”, the binding signal was 18800 fluorescence intensity (a.u.).

For the sequence “TAATCCTTTGCTCCCTGATTGCCTCTCTGCCTCGCTGTACCGGAGTCACCTAGTGCAG”, the binding signal was 8900 fluorescence intensity (a.u.).

On to “GAATAAAAGTTCAACATACACGTGTTAATTTCTGATACTCCGGAGTCACCTAGTGCAG”, for which the binding signal is 8320 fluorescence intensity (a.u.).

Turning to “GCCTCGTCCCGGCGACCTTCTTCCCACCCGCCGGCCGGCTCGGAGTCACCTAGTGCAG”, the binding signal is 9360 fluorescence intensity (a.u.).

For “ACACGCCGACGCCGCGCGCGCTGCACTTTTTTACGCTTTCCGGAGTCACCTAGTGCAG”, the binding signal is 9440 fluorescence intensity (a.u.).

Turning to “CCCTTCGTCTTCCCCGCGCCGCCATCTCATCTTCCCGTTCCGGAGTCACCTAGTGCAG”, the binding signal is 8240 fluorescence intensity (a.u.).

For the sequence “CAGTAAAACCATAACTCCTCTGCCCTTGCTTTTCTACCATCGGAGTCACCTAGTGCAG”, the binding signal was 8540 fluorescence intensity (a.u.).

As to “GTTTTCCCGCGCTTTGGCGCTTCCCGCCCTTTTCCCCTATCGGAGTCACCTAGTGCAG”, the binding signal was 9440 fluorescence intensity (a.u.).

Take “GCCGCCGCCGCCGCTGCCGCCTTGGCTCCTTCGCTCGTCCCGGAGTCACCTAGTGCAG”: the binding signal is 11000 fluorescence intensity (a.u.).

Turning to “GACCGTCCGCTCGCATAACTCCGGTCTGACCGGCTCCACTCGGAGTCACCTAGTGCAG”, the binding signal was 8730 fluorescence intensity (a.u.).

For “ATCTTAGCCTCGTACCTCCTTTTGTGTGTTTAGTTTCTTACGGAGTCACCTAGTGCAG”, the binding signal was 9650 fluorescence intensity (a.u.).

With “GTTTTTAGCTTCCTGTTCCACCCATTAGTAAAAACTGCTGCGGAGTCACCTAGTGCAG”, the binding signal was 8540 fluorescence intensity (a.u.).

Regarding “TTGGTTGAGTCGTTGTTTGCCTACTCCACAGCATCCATCACGGAGTCACCTAGTGCAG”, the binding signal was 8480 fluorescence intensity (a.u.).

Turning to “TTAAAATTTTCCGTTTTTCTTATTCCTACGTCTTCTCAAACGGAGTCACCTAGTGCAG”, the binding signal is 8410 fluorescence intensity (a.u.).

In the case of “CGTTGACCCGAGCGAGCTCCTCTACTCGCCGCCAGCCGCTCGGAGTCACCTAGTGCAG”, the binding signal is 9500 fluorescence intensity (a.u.).

Turning to “GCCGGAACTACTCCATCAGGTTGTCAGCCGATCGGCTGTTCGGAGTCACCTAGTGCAG”, the binding signal was 8830 fluorescence intensity (a.u.).

Regarding “CTTTCTTTTGGAGGCCCTCCACAATTATTTTATTTTGGTTCGGAGTCACCTAGTGCAG”, the binding signal was 8260 fluorescence intensity (a.u.).

As to “GGCGACTCAAGGTGGGTTCTGCGTGGGTAGGGTTTCAATCCGGAGTCACCTAGTGCAG”, the binding signal was 8630 fluorescence intensity (a.u.).

Turning to “ATTGTGTTTCATCGTTTAGATTGTTGATGTTCAAAAGTTGCGGAGTCACCTAGTGCAG”, the binding signal was 8260 fluorescence intensity (a.u.).

In the case of “CGTGGGGTGGGATCGGAAGCAGTGGAGTTGTTTTTATTATCGGAGTCACCTAGTGCAG”, the binding signal is 16500 fluorescence intensity (a.u.).

As to “ACGACGTTGAGTCGTTGACCTCGCTGCTGAGTGTTGACCCCGGAGTCACCTAGTGCAG”, the binding signal was 10200 fluorescence intensity (a.u.).

In the case of “CATCACTCACCTGCATGCGTCCACTCATCCAGCAACTGTTCGGAGTCACCTAGTGCAG”, the binding signal is 9720 fluorescence intensity (a.u.).

For the sequence “GGCTATAGCCTTGCCTTTTCTTTTCTTTTCTTTTCTTTTTCGGAGTCACCTAGTGCAG”, the binding signal is 9750 fluorescence intensity (a.u.).

Turning to “CTCCACCACGCACACACACTCCACACACGCACCCCTACACCGGAGTCACCTAGTGCAG”, the binding signal was 10800 fluorescence intensity (a.u.).

As for “CTACCTAGTCGTAGCTAGCCACCACCTACTTCTGCTCTTCCGGAGTCACCTAGTGCAG”, the binding signal is 9840 fluorescence intensity (a.u.).

As for “ATAAAATGCTCGCATTGTCTGTCGCCTCATCGCTTGTTCTCGGAGTCACCTAGTGCAG”, the binding signal was 9120 fluorescence intensity (a.u.).

Turning to “TCGATCTTCGCCTCCGACTTCGCTTTGATCCAATCTTCTTCGGAGTCACCTAGTGCAG”, the binding signal is 9370 fluorescence intensity (a.u.).

Regarding “GATTTGGCTATGGTCGTTGGATTTGAGGTTAGGGTTAAAACGGAGTCACCTAGTGCAG”, the binding signal was 8850 fluorescence intensity (a.u.).

As for “CAACCCCGGGAAGACTACTCATCATTCGTTAGGTCGTAGTCGGAGTCACCTAGTGCAG”, the binding signal is 8090 fluorescence intensity (a.u.).

Regarding “CACCGTCGCAACTATATTTGTTATTTTTGTTACAACTTATCGGAGTCACCTAGTGCAG”, the binding signal is 11800 fluorescence intensity (a.u.).

Take “CGTGCCGTCACATTAAAATGCTCGTCATTGTTTGGTTTTGCGGAGTCACCTAGTGCAG”: the binding signal is 8320 fluorescence intensity (a.u.).

Consider “TGGCTTCCACTTAGGTTAACATGGTATCAGCACACAGTTACGGAGTCACCTAGTGCAG”, for which the binding signal was 9080 fluorescence intensity (a.u.).

For “ATCTTTGCCAAAATTTTTCTACTAGTATAATACTATCTCCCGGAGTCACCTAGTGCAG”, the binding signal was 8420 fluorescence intensity (a.u.).

Take “TGTTGAAATTGTTTTTTGTTGCTCCTTAATGTTGACTTGTCGGAGTCACCTAGTGCAG”: the binding signal was 10900 fluorescence intensity (a.u.).

Turning to “TATTAATTTTGGATTGGAGTGGGTTGGCCTATGAAGAATTCGGAGTCACCTAGTGCAG”, the binding signal is 11200 fluorescence intensity (a.u.).

For “ACACACGCCGCGGCTCTCGTCGGCTTGAGCCGAGCCGATACGGAGTCACCTAGTGCAG”, the binding signal was 8120 fluorescence intensity (a.u.).

With “GTCGACCTTATCTTCAACGCGCCGCATCCAGCTCTCCGTCCGGAGTCACCTAGTGCAG”, the binding signal was 8700 fluorescence intensity (a.u.).

Consider “TACTGATTTTTCCTTTTTACCGCTGATGATAGTATATACACGGAGTCACCTAGTGCAG”, for which the binding signal was 8780 fluorescence intensity (a.u.).

For “CTCTTACGTACTTTTTCCGTTTTATATTATAAGTTGTTTTCGGAGTCACCTAGTGCAG”, the binding signal is 8980 fluorescence intensity (a.u.).
